Some of the results follow. Small differences around the control level are noise.
These targets were tested with CN[C@@H]1C[C@H]2O[C@@](C)([C@@H]1OC)n1c3ccccc3c3c4c(c5c6ccccc6n2c5c31)C(=O)NC4 [staurosporine] (assay: log2 fold change of tryptic peptide abundance, ligand vs vehicle (limited proteolysis) (log2 ratio); higher = more trypsin-susceptible (destabilized)). Conditions: ligand concentration: 20 uM; sample: K562 cleared lysate; digestion: 4 min, 22 C (HT-PELSA RT4min, Orbitrap Astral).

Sequences of proteins named here, by UniProt entry; tags and fusion partners are left off. A change or cut given only in a name is not applied to a line headed by its entry.
UniProt Q96AP4: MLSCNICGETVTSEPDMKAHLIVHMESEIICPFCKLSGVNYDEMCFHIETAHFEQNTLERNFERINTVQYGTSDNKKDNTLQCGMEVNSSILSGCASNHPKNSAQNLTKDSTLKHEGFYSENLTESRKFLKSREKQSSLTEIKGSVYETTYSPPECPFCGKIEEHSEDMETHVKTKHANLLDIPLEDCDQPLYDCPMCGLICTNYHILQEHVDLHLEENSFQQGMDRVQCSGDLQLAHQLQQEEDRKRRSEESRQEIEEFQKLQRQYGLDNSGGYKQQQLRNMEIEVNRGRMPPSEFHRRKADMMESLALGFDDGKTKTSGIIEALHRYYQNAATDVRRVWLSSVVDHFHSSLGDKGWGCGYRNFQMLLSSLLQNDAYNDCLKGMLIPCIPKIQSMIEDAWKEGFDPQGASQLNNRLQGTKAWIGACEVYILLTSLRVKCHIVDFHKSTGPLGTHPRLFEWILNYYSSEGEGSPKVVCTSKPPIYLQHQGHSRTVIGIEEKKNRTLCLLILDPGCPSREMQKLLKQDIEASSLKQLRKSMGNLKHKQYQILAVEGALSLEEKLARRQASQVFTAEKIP
UniProt Q96EK6: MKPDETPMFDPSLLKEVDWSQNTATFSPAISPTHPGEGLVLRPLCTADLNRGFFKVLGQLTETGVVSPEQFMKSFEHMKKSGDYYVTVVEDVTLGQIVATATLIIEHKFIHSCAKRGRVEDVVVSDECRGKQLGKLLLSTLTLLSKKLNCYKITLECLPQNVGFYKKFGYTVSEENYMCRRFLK
UniProt Q96E09: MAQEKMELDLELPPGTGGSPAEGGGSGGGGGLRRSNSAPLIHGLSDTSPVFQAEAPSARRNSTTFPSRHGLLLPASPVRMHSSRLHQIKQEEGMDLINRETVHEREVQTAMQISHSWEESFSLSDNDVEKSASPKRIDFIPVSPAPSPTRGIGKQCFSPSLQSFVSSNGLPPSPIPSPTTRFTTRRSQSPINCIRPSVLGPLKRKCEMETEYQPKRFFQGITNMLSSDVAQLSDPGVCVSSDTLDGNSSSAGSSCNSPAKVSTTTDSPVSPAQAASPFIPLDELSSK
UniProt Q96DB5: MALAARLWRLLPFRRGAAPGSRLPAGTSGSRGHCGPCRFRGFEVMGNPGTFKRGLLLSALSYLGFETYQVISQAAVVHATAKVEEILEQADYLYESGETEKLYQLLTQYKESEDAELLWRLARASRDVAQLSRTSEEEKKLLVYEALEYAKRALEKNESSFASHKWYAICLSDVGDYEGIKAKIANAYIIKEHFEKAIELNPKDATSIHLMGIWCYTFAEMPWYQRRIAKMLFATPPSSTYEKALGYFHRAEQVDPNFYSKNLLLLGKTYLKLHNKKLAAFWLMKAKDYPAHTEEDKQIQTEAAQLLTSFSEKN
UniProt Q93100: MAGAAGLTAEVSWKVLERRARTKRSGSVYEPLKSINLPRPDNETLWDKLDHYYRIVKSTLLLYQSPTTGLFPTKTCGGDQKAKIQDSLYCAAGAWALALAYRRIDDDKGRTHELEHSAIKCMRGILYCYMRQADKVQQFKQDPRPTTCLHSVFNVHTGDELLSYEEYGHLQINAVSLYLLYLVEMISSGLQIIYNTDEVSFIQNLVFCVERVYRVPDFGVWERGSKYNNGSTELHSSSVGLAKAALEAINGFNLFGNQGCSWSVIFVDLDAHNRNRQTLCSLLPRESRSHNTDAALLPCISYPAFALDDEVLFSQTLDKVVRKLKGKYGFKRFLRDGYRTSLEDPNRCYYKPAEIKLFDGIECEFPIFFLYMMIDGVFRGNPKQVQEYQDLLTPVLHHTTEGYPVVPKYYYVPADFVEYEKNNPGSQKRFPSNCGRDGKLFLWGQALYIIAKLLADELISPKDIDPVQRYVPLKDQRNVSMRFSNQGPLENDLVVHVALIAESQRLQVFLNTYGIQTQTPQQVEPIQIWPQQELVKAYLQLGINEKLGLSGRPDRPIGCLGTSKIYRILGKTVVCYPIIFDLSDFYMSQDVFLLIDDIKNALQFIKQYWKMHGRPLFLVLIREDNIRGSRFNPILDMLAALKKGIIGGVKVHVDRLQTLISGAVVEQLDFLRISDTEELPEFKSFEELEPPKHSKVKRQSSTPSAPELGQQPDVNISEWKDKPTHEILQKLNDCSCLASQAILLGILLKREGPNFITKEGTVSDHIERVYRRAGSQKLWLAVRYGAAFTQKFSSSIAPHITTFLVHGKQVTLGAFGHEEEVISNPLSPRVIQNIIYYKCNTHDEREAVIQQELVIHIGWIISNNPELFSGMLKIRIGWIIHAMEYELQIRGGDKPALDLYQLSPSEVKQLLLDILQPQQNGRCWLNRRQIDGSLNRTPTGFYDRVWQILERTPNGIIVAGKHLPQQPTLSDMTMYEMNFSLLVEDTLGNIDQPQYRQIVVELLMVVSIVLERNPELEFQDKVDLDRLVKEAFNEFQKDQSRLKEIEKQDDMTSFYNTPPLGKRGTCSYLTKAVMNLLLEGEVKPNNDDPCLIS
UniProt Q92833: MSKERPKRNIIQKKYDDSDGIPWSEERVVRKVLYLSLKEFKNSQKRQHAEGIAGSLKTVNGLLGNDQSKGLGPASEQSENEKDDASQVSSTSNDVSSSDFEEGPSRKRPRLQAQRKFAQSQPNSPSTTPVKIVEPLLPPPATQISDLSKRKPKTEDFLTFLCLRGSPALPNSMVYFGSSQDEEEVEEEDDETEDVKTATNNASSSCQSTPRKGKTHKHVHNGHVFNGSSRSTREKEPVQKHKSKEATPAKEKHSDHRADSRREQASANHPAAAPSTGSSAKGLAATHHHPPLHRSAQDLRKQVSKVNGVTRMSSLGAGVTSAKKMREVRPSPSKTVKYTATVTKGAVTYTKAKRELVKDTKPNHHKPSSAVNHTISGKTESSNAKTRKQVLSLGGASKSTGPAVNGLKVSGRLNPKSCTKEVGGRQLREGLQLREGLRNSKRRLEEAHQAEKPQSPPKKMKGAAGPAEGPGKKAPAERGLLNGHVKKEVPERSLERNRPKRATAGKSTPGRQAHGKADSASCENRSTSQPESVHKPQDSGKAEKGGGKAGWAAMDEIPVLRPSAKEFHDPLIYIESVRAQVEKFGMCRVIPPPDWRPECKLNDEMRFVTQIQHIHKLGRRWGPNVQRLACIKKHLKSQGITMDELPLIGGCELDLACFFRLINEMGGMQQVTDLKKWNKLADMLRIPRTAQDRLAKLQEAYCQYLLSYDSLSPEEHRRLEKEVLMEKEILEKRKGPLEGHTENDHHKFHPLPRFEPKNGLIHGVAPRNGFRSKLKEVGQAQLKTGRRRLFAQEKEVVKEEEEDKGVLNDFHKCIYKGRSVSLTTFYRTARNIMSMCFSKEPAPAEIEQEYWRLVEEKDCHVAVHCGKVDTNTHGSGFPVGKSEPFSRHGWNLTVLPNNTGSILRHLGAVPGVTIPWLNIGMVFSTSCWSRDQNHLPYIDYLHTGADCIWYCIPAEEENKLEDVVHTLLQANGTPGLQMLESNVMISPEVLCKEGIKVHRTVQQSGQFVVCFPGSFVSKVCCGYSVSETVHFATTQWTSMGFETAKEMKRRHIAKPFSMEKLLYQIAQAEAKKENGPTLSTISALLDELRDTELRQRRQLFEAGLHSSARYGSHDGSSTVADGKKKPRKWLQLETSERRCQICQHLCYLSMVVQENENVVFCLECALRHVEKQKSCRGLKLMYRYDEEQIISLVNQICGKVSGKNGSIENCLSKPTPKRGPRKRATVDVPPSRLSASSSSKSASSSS
UniProt Q96DC7: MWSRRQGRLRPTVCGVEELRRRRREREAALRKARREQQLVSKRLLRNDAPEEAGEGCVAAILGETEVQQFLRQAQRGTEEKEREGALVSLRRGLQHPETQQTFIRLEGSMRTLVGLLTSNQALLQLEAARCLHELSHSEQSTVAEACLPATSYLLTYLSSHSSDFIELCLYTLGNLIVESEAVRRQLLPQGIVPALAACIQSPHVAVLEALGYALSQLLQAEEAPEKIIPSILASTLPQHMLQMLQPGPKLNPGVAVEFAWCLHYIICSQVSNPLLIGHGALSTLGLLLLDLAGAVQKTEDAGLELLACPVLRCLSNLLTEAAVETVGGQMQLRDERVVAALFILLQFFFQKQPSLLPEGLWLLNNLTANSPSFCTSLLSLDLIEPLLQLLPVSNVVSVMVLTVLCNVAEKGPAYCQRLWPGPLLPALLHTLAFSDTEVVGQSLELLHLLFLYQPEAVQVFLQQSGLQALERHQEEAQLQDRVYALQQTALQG
UniProt Q96B02: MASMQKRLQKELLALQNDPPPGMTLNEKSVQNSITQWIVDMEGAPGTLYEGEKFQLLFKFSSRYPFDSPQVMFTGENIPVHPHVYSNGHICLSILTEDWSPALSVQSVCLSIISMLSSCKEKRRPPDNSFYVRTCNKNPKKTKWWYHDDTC
UniProt Q93075: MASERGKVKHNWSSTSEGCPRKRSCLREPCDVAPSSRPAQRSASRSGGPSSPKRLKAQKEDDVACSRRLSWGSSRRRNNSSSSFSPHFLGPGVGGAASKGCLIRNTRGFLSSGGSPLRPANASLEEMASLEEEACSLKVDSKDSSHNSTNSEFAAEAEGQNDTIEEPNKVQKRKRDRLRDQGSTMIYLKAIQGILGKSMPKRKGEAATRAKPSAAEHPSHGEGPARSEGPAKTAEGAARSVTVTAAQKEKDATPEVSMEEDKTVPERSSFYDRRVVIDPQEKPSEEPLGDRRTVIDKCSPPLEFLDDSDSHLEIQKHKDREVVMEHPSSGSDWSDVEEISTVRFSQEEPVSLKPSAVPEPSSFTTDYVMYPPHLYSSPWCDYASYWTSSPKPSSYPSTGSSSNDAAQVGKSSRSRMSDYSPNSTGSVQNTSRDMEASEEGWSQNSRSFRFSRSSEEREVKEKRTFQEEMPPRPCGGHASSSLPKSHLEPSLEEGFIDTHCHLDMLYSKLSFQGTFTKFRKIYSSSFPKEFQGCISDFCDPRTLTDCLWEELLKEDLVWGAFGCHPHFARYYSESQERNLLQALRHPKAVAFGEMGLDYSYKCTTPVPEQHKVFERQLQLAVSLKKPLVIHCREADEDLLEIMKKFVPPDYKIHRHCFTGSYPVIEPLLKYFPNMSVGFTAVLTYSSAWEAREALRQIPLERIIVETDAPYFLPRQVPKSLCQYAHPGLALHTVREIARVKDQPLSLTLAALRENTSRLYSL
UniProt Q96BT3, whole entry: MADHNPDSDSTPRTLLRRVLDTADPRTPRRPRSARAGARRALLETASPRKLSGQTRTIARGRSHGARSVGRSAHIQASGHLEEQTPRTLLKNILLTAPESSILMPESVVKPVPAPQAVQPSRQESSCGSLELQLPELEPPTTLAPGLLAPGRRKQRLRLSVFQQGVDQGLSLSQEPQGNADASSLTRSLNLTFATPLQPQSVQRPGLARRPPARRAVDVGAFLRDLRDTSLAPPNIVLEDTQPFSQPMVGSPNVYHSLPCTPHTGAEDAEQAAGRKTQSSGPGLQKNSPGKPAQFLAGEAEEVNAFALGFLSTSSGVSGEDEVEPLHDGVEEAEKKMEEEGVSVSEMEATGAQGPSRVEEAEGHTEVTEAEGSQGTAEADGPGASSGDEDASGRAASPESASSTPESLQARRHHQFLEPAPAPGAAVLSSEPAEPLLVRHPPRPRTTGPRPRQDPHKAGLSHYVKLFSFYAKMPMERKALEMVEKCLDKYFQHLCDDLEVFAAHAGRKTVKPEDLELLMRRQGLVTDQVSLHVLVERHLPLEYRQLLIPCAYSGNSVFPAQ
UniProt Q96DE0: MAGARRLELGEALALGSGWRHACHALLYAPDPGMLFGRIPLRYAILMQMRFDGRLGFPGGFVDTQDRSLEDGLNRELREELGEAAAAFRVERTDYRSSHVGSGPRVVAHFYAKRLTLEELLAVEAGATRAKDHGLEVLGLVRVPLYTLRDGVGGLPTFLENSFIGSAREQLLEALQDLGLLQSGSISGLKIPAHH
UniProt Q96CN5: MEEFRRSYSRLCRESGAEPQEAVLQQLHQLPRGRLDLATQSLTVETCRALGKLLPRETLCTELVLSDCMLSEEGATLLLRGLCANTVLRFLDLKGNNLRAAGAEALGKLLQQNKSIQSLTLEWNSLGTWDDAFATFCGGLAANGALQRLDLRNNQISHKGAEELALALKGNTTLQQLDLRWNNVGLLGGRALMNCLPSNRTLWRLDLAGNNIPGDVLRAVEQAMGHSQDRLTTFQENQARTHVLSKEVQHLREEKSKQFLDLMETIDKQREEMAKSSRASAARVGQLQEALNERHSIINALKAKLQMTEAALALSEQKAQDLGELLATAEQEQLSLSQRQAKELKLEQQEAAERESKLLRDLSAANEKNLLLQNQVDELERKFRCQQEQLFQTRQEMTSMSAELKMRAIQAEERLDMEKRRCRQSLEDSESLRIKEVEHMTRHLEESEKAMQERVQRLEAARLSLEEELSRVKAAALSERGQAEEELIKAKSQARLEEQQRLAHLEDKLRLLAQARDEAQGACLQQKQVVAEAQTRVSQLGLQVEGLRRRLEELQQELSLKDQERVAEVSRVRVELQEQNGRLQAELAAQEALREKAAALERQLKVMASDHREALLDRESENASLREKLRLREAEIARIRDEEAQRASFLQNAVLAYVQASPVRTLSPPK

Target	log2 fold change
COPS5 (peptide sequence: TTIEAIHGLMSQVIKDK, peptide start residue: 310) (UniProt Q92905)	0.165
SNAPC3 (peptide sequence: AVCGLDKLK, peptide start residue: 102) (UniProt Q92966)	0.147
LTV1 (peptide sequence: RNEQLTLHDER, peptide start residue: 252) (UniProt Q96GA3)	0.0991
ZUP1 (peptide sequence: QYGLDNSGGYK, peptide start residue: 266) (UniProt Q96AP4)	-0.249
UniProt Q96FT9 (peptide sequence: RAQQESAQAENHLNGK, peptide start residue: 25)	0.105
GNPNAT1 (peptide sequence: VEDVVVSDECR, peptide start residue: 119) (UniProt Q96EK6)	-0.00237
UniProt Q92985 (peptide sequence: NCDTPIFDFR, peptide start residue: 399)	0.164
FAM122A (peptide sequence: SQSPINCIRPSVLGPLK, peptide start residue: 187) (UniProt Q96E09)	0.102
FAM136A (peptide sequence: AKDSIDAGSK, peptide start residue: 90) (UniProt Q96C01)	0.323
UniProt Q96DB5 (peptide sequence: LLVYEALEYAKR, peptide start residue: 141)	0.41
GTPBP3 (peptide sequence: KPVSIVSPEPGTTR, peptide start residue: 272) (UniProt Q969Y2)	0.319
PHKB (peptide sequence: TPTGFYDRVWQILER, peptide start residue: 937) (UniProt Q93100)	-0.251
ZNF669 (peptide sequence: STHTGEKPYECK, peptide start residue: 382) (UniProt Q96BR6)	-0.965
JARID2 (peptide sequence: KENGPTLSTISALLDELRDTELR, peptide start residue: 1072) (UniProt Q92833)	-0.419
UniProt Q96EY4 (peptide sequence: EKLKNEK, peptide start residue: 38)	0.592
TMCO6 (peptide sequence: LRPTVCGVEELR, peptide start residue: 9) (UniProt Q96DC7)	0.173
UBE2W (peptide sequence: WWYHDDTC, peptide start residue: 144) (UniProt Q96B02)	-0.739
TATDN2 (peptide sequence: AKPSAAEHPSHGEGPAR, peptide start residue: 210) (UniProt Q93075)	-0.274
CENPT (peptide sequence: SAHIQASGHLEEQTPR, peptide start residue: 72) (UniProt Q96BT3)	-0.411

Target	log2 fold change
ATP6V0A1 (peptide sequence: HLGTLNFGGIR, peptide start residue: 667) (UniProt Q93050)	-0.0157
EME1 (peptide sequence: QLSPEDSSSPVK, peptide start residue: 109) (UniProt Q96AY2)	0.252
UniProt Q96BN2 (peptide sequence: LLTQDNVHSHNDFLLAILTR, peptide start residue: 50)	-0.0917
HOOK2 (peptide sequence: EVAELQHR, peptide start residue: 272) (UniProt Q96ED9)	-0.44
BCL2L2 (peptide sequence: ALVADFVGYK, peptide start residue: 12) (UniProt Q92843)	-0.27
ELP4 (peptide sequence: KEFDEDVYNHKTPESNIK, peptide start residue: 140) (UniProt Q96EB1)	0.511
DUS3L (peptide sequence: YVPVGLLER, peptide start residue: 585) (UniProt Q96G46)	0.152
PTER (peptide sequence: ILQEAGADISK, peptide start residue: 215) (UniProt Q96BW5)	0.297
NUDT16 (peptide sequence: SSHVGSGPR, peptide start residue: 97) (UniProt Q96DE0)	0.252
FOXRED1 (peptide sequence: EGLGSNYLGGR, peptide start residue: 353) (UniProt Q96CU9)	0.188
UniProt Q96FB5 (peptide sequence: HSPHHVVR, peptide start residue: 220)	0.206
UPF1 (peptide sequence: IPSEQEQLR, peptide start residue: 245) (UniProt Q92900)	0.272
GCDH (peptide sequence: AAPEMVSLLKR, peptide start residue: 362) (UniProt Q92947)	0.369
ZNF428 (peptide sequence: AAQPPAQPCQLCGR, peptide start residue: 85) (UniProt Q96B54)	-0.169
SLC10A4 (peptide sequence: KLKEEEMADTSYGTVK, peptide start residue: 408) (UniProt Q96EP9)	-0.249
AIDA (peptide sequence: IATCLELR, peptide start residue: 66) (UniProt Q96BJ3)	0.0542
PNPLA2 (peptide sequence: NNLSLGDALAK, peptide start residue: 425) (UniProt Q96AD5)	0.35
LRRC45 (peptide sequence: VGQLQEALNER, peptide start residue: 284) (UniProt Q96CN5)	-0.365

Part of the list above, reformatted:
Target,log2 fold change
"GNPNAT1 (peptide sequence: VEDVVVSDECR, peptide start residue: 119) (UniProt Q96EK6)",-0.00237
"UniProt Q96DB5 (peptide sequence: LLVYEALEYAKR, peptide start residue: 141)",0.41
"GTPBP3 (peptide sequence: KPVSIVSPEPGTTR, peptide start residue: 272) (UniProt Q969Y2)",0.319
"UniProt Q96BN2 (peptide sequence: LLTQDNVHSHNDFLLAILTR, peptide start residue: 50)",-0.0917
"HOOK2 (peptide sequence: EVAELQHR, peptide start residue: 272) (UniProt Q96ED9)",-0.44
"ELP4 (peptide sequence: KEFDEDVYNHKTPESNIK, peptide start residue: 140) (UniProt Q96EB1)",0.511
"ZNF428 (peptide sequence: AAQPPAQPCQLCGR, peptide start residue: 85) (UniProt Q96B54)",-0.169
"PNPLA2 (peptide sequence: NNLSLGDALAK, peptide start residue: 425) (UniProt Q96AD5)",0.35
